# Experimental data reported in the supplement of paper PMC8728848.
# This is one part of the list.
# B1: SJCP1084 (Schistosoma japonicum) (protein)
# chain: MRIINLVIISTALLLINLLQTKSQANGEDTKNGTPDDPGLTKSTELKVEVQALLKDKKTNMRVKWNENLLDNTKPEYHNLRDEACELLLQIVRSVVPLSQDDGECKDVTFTKYVVGTKDGAVNVKLTITFKDSVAINQKPMDLKLKLENDFKNLQSESTLKATKPTFTVKVEKRLIPISKPQTTPPTTAKNDASKENVGDIGGEDSTVPTAAPATAASANEEKDEGDKDNKDSQHPNVLTSNVNDRNLIIALVALMILAIGVALTAAVKQR
# Legend:
# Assay in all cases: glycan array binding signal (z-score within array); higher = stronger binding
# Conditions in all cases: glycan notation: IUPAC condensed, linker removed
# [1] = target: GlcNAc(b1-3)Gal(b1-4)GlcNAc(b1-3)Gal(b1-4)GlcNAc(b1-2)Man(a1-3)[GlcNAc(b1-3)Gal(b1-4)GlcNAc(b1-3)Gal(b1-4)GlcNAc(b1-2)Man(a1-6)]Man(b1-4)GlcNAc(b1-4)[Fuc(a1-6)]GlcNAc
# Summary of the method: (§1)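 Arrays were curated from the Consortium for Functional Glycomics database, 3228 in total, and kept only where the protein sequence was available. Binding is expressed as a within-array Z-score. This score was averaged across arrays of the same protein sequence at different concentrations or buffers and across linkers, and negative values can be read as non-binding.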
# [2] = target: GlcNAc(b1-3)Gal(b1-4)GlcNAc(b1-3)Gal(b1-4)GlcNAc(b1-2)[GlcNAc(b1-3)Gal(b1-4)GlcNAc(b1-3)Gal(b1-4)GlcNAc(b1-6)]Man(a1-6)[GlcNAc(b1-3)Gal(b1-4)GlcNAc(b1-3)Gal(b1-4)GlcNAc(b1-2)Man(a1-3)]Man(b1-4)GlcNAc(b1-4)[Fuc(a1-6)]GlcNAc
# Summary of the method: as §1
# [3] = target: GlcNAc(b1-3)Gal(b1-4)GlcNAc(b1-3)Gal(b1-4)GlcNAc(b1-3)Gal(b1-4)GlcNAc(b1-2)Man(a1-3)[GlcNAc(b1-3)Gal(b1-4)GlcNAc(b1-3)Gal(b1-4)GlcNAc(b1-3)Gal(b1-4)GlcNAc(b1-2)Man(a1-6)]Man(b1-4)GlcNAc(b1-4)GlcNAc
# Summary of the method: as §1
# [4] = target: GlcNAc(b1-3)Gal(b1-4)GlcNAc(b1-3)Gal(b1-4)GlcNAc(b1-3)Gal(b1-4)GlcNAc(b1-2)Man(a1-3)[GlcNAc(b1-3)Gal(b1-4)GlcNAc(b1-3)Gal(b1-4)GlcNAc(b1-3)Gal(b1-4)GlcNAc(b1-2)Man(a1-6)]Man(b1-4)GlcNAc(b1-4)[Fuc(a1-6)]GlcNAc
# Summary of the method: as §1
# [5] = target: GlcNAc(b1-3)Gal(b1-4)GlcNAc(b1-3)Gal(b1-4)GlcNAc(b1-3)Gal(b1-4)GlcNAc(b1-2)[GlcNAc(b1-3)Gal(b1-4)GlcNAc(b1-3)Gal(b1-4)GlcNAc(b1-3)Gal(b1-4)GlcNAc(b1-6)]Man(a1-6)[GlcNAc(b1-3)Gal(b1-4)GlcNAc(b1-3)Gal(b1-4)GlcNAc(b1-3)Gal(b1-4)GlcNAc(b1-2)Man(a1-3)]Man(b1-4)GlcNAc(b1-4)[Fuc(a1-6)]GlcNAc
# Summary of the method: as §1
# [6] = target: GlcNAc(b1-3)Gal(b1-4)GlcNAc(b1-3)Gal(b1-4)GlcNAc(b1-3)Gal(b1-4)GlcNAc(b1-3)Gal(b1-4)GlcNAc(b1-2)Man(a1-3)[GlcNAc(b1-3)Gal(b1-4)GlcNAc(b1-3)Gal(b1-4)GlcNAc(b1-3)Gal(b1-4)GlcNAc(b1-3)Gal(b1-4)GlcNAc(b1-2)Man(a1-6)]Man(b1-4)GlcNAc(b1-4)GlcNAc
# Summary of the method: as §1
# [7] = target: GlcNAc(b1-3)Gal(b1-4)GlcNAc(b1-3)Gal(b1-4)GlcNAc(b1-3)Gal(b1-4)GlcNAc(b1-3)Gal(b1-4)GlcNAc(b1-2)Man(a1-3)[GlcNAc(b1-3)Gal(b1-4)GlcNAc(b1-3)Gal(b1-4)GlcNAc(b1-3)Gal(b1-4)GlcNAc(b1-3)Gal(b1-4)GlcNAc(b1-2)Man(a1-6)]Man(b1-4)GlcNAc(b1-4)[Fuc(a1-6)]GlcNAc
# Summary of the method: as §1
# [8] = target: GlcNAc(b1-3)Gal(b1-4)GlcNAc(b1-3)Gal(b1-4)GlcNAc(b1-3)Gal(b1-4)GlcNAc(b1-3)Gal(b1-4)GlcNAc(b1-2)[GlcNAc(b1-3)Gal(b1-4)GlcNAc(b1-3)Gal(b1-4)GlcNAc(b1-3)Gal(b1-4)GlcNAc(b1-3)Gal(b1-4)GlcNAc(b1-6)]Man(a1-6)[GlcNAc(b1-3)Gal(b1-4)GlcNAc(b1-3)Gal(b1-4)GlcNAc(b1-3)Gal(b1-4)GlcNAc(b1-3)Gal(b1-4)GlcNAc(b1-2)Man(a1-3)]Man(b1-4)GlcNAc(b1-4)[Fuc(a1-6)]GlcNAc
# Summary of the method: as §1
# [9] = target: GlcNAc(b1-3)Gal(b1-4)GlcNAc(b1-3)Gal(b1-4)GlcNAc(b1-3)GalNAc
# Summary of the method: as §1
# [10] = target: GlcNAc(b1-3)Gal(b1-4)GlcNAc(b1-3)GalNAc
# Summary of the method: as §1
# [11] = target: GlcNAc(b1-3)Gal(b1-4)GlcNAc(b1-3)[GlcNAc(b1-3)Gal(b1-4)GlcNAc(b1-3)]GalNAc
# Summary of the method: as §1
# [12] = target: GlcNAc(b1-3)Gal(b1-4)GlcNAc(b1-6)[Gal(b1-3)]GalNAc
# Summary of the method: as §1
# [13] = target: GlcNAc(b1-3)Gal(b1-4)GlcNAc(b1-6)[GlcNAc(b1-3)Gal(b1-3)]GalNAc
# Summary of the method: as §1
# [14] = target: GlcNAc(b1-3)Gal(b1-4)GlcNAc(b1-6)[GlcNAc(b1-3)]Gal(b1-4)GlcNAc
# Summary of the method: as §1
# [15] = target: GlcNAc(b1-3)GalNAc
# Summary of the method: as §1
# [16] = target: GlcNAc(b1-3)Man
# Summary of the method: as §1
# [17] = target: GlcNAc(b1-3)[GlcNAc(b1-4)][GlcNAc(b1-6)]GlcNAc
# Summary of the method: as §1
# [18] = target: GlcNAc(b1-3)[GlcNAc(b1-6)]Gal(b1-4)GlcNAc
# Summary of the method: as §1
# [19] = target: GlcNAc(b1-3)[GlcNAc(b1-6)]GalNAc
# Summary of the method: as §1
# [20] = target: GlcNAc(b1-4)Gal(b1-4)GlcNAc
# Summary of the method: as §1
# [21] = target: GlcNAc(b1-4)GlcNAc
# Summary of the method: as §1
# [22] = target: GlcNAc(b1-4)GlcNAc(b1-4)GlcNAc
# Summary of the method: as §1
# [23] = target: GlcNAc(b1-4)GlcNAc(b1-4)GlcNAc(b1-4)GlcNAc(b1-4)GlcNAc
# Summary of the method: as §1
# [24] = target: GlcNAc(b1-4)GlcNAc(b1-4)GlcNAc(b1-4)GlcNAc(b1-4)GlcNAc(b1-4)GlcNAc
# Summary of the method: as §1
# [25] = target: GlcNAc(b1-4)[GlcNAc(b1-6)]GalNAc
# Summary of the method: as §1
# [26] = target: GlcNAc(b1-6)Gal(b1-4)GlcNAc
# Summary of the method: as §1
# [27] = target: GlcNAc(b1-6)GalNAc
# Summary of the method: as §1
# [28] = target: GlcNAc6S(b1-3)Gal(b1-4)GlcNAc
# Summary of the method: as §1
# [29] = target: Kdn(a2-3)Gal(b1-3)GalNAc
# Summary of the method: as §1
# [30] = target: Kdn(a2-3)Gal(b1-3)GlcNAc
# Summary of the method: as §1
# [31] = target: Kdn(a2-3)Gal(b1-4)Glc
# Summary of the method: as §1
# [32] = target: Kdn(a2-3)Gal(b1-4)GlcNAc
# Summary of the method: as §1
# [33] = target: Kdn(a2-3)Gal(b1-4)[Fuc(a1-3)]GlcNAc
# Summary of the method: as §1
# [34] = target: Kdn(a2-6)Gal(b1-4)GlcNAc
# Summary of the method: as §1
# [35] = target: Man(a1-2)Man(a1-2)Man(a1-3)Man
# Summary of the method: as §1
# [36] = target: Man(a1-2)Man(a1-2)Man(a1-6)[Man(a1-3)]Man
# Summary of the method: as §1
# [37] = target: Man(a1-2)Man(a1-3)Man
# Summary of the method: as §1
# [38] = target: Man(a1-2)Man(a1-3)[Man(a1-2)Man(a1-6)]Man
# Summary of the method: as §1
binder,measurement,setting,value
B1,glycan array binding signal (z-score),[1],-0.088
same,glycan array binding signal (z-score),[2],-0.27
same,glycan array binding signal (z-score),[3],1.28
same,glycan array binding signal (z-score),[4],1.66
same,glycan array binding signal (z-score),[5],0.279
same,glycan array binding signal (z-score),[6],0.058
same,glycan array binding signal (z-score),[7],-0.466
same,glycan array binding signal (z-score),[8],2.68
same,glycan array binding signal (z-score),[9],0.016
same,glycan array binding signal (z-score),[10],-0.886
same,glycan array binding signal (z-score),[11],0.184
same,glycan array binding signal (z-score),[12],-1.25
same,glycan array binding signal (z-score),[13],-0.738
same,glycan array binding signal (z-score),[14],-0.686
same,glycan array binding signal (z-score),[15],-0.411
same,glycan array binding signal (z-score),[16],0.248
same,glycan array binding signal (z-score),[17],-0.927
same,glycan array binding signal (z-score),[18],1.12
same,glycan array binding signal (z-score),[19],0.049
same,glycan array binding signal (z-score),[20],-0.577
same,glycan array binding signal (z-score),[21],0.004
same,glycan array binding signal (z-score),[22],-1.45
same,glycan array binding signal (z-score),[23],-0.993
same,glycan array binding signal (z-score),[24],-0.608
same,glycan array binding signal (z-score),[25],0.927
same,glycan array binding signal (z-score),[26],-0.211
same,glycan array binding signal (z-score),[27],-0.023
same,glycan array binding signal (z-score),[28],0.716
same,glycan array binding signal (z-score),[29],1.08
same,glycan array binding signal (z-score),[30],-0.193
same,glycan array binding signal (z-score),[31],-0.188
same,glycan array binding signal (z-score),[32],0.128
same,glycan array binding signal (z-score),[33],0.524
same,glycan array binding signal (z-score),[34],-0.175
same,glycan array binding signal (z-score),[35],-0.684
same,glycan array binding signal (z-score),[36],0.854
same,glycan array binding signal (z-score),[37],-1.17
same,glycan array binding signal (z-score),[38],-0.874

# Exported as tab-separated lines: entries from further up
binder	measurement	setting	value
B1	glycan array binding signal (z-score)	[8]	2.68
same	glycan array binding signal (z-score)	[9]	0.016
